In paper PMC9110406:
These are yes or no findings as the source states them, for the method shown. Binding can be weak; no strength is given.

Amino acid sequences for entries named in this document (tags omitted). A change or cut given only in a name is not applied to a line headed by its entry.
UniProt Q91WV7: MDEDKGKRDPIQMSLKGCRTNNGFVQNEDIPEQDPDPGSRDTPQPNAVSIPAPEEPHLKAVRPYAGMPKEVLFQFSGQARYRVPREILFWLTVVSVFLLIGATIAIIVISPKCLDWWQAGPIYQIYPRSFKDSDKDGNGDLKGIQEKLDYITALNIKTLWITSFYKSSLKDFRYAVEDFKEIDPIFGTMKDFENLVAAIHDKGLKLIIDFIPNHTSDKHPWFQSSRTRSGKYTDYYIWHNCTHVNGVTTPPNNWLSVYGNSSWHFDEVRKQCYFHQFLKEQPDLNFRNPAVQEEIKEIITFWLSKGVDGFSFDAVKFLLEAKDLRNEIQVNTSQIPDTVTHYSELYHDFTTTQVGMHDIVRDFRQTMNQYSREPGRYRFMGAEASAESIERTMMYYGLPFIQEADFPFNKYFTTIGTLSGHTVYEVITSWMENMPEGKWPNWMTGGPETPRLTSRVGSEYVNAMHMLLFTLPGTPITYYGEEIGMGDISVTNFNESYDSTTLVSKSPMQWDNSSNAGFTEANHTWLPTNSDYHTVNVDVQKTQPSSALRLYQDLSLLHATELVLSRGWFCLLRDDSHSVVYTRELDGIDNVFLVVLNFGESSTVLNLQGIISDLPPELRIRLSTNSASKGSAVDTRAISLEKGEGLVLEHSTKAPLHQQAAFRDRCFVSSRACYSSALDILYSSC
UniProt Q9QXA6: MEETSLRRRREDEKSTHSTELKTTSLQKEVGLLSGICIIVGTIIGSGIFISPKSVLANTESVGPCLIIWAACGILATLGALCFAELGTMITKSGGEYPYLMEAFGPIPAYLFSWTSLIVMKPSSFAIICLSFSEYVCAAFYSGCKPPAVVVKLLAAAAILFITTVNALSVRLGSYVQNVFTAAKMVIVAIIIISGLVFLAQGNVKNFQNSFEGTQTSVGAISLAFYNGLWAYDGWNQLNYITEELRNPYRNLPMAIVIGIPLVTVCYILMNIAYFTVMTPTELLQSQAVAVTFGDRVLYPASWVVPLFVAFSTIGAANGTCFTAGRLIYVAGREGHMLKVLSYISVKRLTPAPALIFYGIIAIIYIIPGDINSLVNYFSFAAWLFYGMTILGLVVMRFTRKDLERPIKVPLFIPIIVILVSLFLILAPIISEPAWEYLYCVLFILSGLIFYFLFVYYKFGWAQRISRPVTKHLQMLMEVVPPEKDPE

Target: murine rBAT (murine) (UniProt Q91WV7)
Test: negative-stain electron microscopy; complex purified with Strep XT resin and GFP nanotrap, in LMNG/CHS, about 0.02 mg/ml, 1% uranyl formate; 2D class averages; both purified

binding: binds
Substance: murine b^0,+AT with Strep II tag (from UniProt Q9QXA6)
